A short description of the data set: general procedure: Fmoc solid-phase peptide synthesis; rink amide methylbenzhydrylamine resin; HCTU. The following applies: conjugation step; for final HPLC purity: UPLC.

One purity is given for all peptides; the source may state it once.

The values that follow come from US9687561 (dated 2017).

As to propagyl-PAMAM(2)-(SSCysAn2)8, the conjugation yield stood at 30% and the “final HPLC purity” value is on record as 95%.

Regarding Propagyl-PAMAM(1)-(SSCysAn2)4, the conjugation yield came to 65% and the “final HPLC purity” value is listed as 95%.

As to propagyl-PAMAM(1)-(SMaI-An2)4, the conjugation yield came to 21% and the “final HPLC purity” value was found to be 95%.

Regarding azido-PAMAM(0)-(SSCysAn2)2, the conjugation yield was determined as 43% and the “final HPLC purity” value came to 95%.

For the substance azido-PAMAM(1)-(SMaI-An2)4, the conjugation yield stood at 20% and the “final HPLC purity” value is listed as 95%.

Regarding azido-PAMAM(1)-(SSCysAn2)4, the conjugation yield was found to be 43% and the “final HPLC purity” value came to 95%.
